The target in experiment [1] is T1, Top3 (yeast two-hybrid fusion) (S. cerevisiae) (UniProt P13099).
T1 sequence: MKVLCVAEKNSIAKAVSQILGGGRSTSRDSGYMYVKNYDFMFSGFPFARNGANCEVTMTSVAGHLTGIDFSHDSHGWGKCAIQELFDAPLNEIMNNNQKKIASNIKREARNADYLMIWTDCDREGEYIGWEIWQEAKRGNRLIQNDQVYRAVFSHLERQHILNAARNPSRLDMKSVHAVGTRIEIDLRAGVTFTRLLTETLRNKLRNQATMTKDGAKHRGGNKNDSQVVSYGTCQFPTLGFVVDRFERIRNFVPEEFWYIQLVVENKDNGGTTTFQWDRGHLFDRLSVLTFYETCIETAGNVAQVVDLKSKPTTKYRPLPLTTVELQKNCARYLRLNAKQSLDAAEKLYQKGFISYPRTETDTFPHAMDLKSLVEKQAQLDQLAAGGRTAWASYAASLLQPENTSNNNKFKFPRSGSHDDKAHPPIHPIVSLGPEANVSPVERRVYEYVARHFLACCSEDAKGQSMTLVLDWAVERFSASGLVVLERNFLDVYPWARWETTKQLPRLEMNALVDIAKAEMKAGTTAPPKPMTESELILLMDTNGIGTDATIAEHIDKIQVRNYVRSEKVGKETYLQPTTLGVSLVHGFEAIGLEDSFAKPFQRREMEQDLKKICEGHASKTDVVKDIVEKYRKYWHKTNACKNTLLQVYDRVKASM
Description: two-hybrid; pGAD-C1 and pGBDU-C1 fusions in reporter strain yWL365; growth on -Leu/-Ura/-His with or without 1 mM 3-aminotriazole, 30°C, 4–6 days.

By UniProt entry, the sequences of proteins in these tests, tags left out. Where a name states a change or a piece, a line headed by the entry shows the natural chain unless it says otherwise.
UniProt P51979: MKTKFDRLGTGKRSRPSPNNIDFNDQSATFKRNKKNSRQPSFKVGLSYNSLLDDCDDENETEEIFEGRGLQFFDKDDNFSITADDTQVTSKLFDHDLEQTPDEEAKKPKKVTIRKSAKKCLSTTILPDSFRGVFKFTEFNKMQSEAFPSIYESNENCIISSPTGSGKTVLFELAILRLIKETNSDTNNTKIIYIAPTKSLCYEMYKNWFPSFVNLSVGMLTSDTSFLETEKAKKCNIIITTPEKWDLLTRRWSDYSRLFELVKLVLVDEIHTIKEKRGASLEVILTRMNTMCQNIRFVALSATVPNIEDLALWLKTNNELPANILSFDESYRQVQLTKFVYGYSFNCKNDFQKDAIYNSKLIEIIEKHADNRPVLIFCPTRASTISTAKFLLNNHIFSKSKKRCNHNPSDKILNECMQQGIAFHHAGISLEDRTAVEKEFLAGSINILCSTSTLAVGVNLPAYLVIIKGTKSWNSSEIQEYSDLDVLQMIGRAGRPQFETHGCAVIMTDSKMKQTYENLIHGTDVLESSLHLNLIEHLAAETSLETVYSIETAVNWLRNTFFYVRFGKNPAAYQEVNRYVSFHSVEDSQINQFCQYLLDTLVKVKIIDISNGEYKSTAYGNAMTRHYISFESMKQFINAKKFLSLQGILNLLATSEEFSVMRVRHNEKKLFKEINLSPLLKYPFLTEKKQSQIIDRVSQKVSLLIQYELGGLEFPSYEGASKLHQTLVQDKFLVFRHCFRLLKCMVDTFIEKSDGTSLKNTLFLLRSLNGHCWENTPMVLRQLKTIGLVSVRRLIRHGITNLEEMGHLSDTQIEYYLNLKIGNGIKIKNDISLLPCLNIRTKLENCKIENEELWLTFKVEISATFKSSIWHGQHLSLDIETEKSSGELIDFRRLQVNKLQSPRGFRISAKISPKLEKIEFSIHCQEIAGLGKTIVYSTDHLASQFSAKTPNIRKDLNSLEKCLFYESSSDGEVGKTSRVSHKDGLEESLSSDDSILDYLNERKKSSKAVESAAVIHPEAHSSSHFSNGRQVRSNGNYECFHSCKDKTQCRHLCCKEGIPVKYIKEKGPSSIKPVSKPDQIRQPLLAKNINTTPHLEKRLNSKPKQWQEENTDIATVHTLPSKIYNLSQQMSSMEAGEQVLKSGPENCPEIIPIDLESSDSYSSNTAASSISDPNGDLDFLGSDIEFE
UniProt P38920: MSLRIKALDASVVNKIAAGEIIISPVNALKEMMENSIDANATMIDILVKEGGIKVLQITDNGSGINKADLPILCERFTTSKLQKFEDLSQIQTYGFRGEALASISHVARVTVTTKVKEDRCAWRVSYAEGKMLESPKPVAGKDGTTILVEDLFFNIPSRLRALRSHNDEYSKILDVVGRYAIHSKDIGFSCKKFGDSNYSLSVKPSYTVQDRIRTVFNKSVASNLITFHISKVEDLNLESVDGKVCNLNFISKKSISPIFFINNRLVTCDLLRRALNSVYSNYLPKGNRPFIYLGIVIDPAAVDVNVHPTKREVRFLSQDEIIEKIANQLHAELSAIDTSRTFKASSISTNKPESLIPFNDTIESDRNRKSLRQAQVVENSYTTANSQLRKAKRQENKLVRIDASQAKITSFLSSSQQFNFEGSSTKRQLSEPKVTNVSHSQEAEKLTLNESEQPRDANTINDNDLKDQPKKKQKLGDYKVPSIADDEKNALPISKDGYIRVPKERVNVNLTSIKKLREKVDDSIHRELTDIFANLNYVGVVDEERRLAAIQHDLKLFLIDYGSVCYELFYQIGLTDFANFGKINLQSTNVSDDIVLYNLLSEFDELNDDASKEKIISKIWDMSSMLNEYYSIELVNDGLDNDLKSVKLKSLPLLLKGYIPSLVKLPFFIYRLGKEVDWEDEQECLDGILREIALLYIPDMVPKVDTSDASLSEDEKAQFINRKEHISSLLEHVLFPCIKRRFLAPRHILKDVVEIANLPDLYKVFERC

Experiment [2] addresses T2, Rmi1 (yeast two-hybrid fusion) (S. cerevisiae) (UniProt Q02685).
T2 sequence: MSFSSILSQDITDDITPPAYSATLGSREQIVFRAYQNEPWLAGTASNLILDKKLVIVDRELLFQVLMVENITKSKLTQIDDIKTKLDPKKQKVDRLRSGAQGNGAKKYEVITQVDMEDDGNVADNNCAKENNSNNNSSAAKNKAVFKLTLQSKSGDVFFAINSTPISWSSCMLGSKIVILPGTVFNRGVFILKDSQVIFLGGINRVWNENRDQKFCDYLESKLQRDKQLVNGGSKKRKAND
The experiment is described as above.

Experiment [3] concerns the target T3, Top3-3HA (C-terminally HA-tagged Top3 in SK1 yeast) (S. cerevisiae) (UniProt P13099).
T3 sequence: T1 sequence
Nature of the experiment: co-IP; anti-HA immunoprecipitation from SK1 meiotic lysates (6 h in sporulation medium), anti-Myc blot; 50 mM Tris–HCl pH 7.5, 150 mM NaCl, 1% Nonidet P-40, 1 mM EDTA.

Experiment [4] addresses T4, Top3/GST-Rmi1 complex (S. cerevisiae) (UniProt P13099+Q02685).
T4 sequence 1: T1 sequence
T4 sequence 2: T2 sequence
Nature of the experiment: pull-down; Top3/GST-Rmi1 (0.8 μM) on magnetic glutathione beads, His-Mlh1/Strep-Mlh2 0.8 μM, without or with Mer3-Strep (0.2 or 0.8 μM); 25 mM HEPES pH 7.5, 5% glycerol, 100 mM NaCl, 1 mM TCEP, 0.1% Tween-20; stained gel; both purified.

Results are given in words; binding and its absence hold for the method and conditions named. For some of these results: Binding seen in cells or lysates may run through a third protein. Some results given as binding are weak or reduced against the parent protein; the word gives no strength. Sequences can lack the tags named with a protein.

On to “Mer3 (yeast two-hybrid fusion) (from UniProt P51979 1-1187) (enzyme)”, for which the binding result in experiment [1] and in experiment [2] was “binds” in each case.

Take “Mer3-9Myc (C-terminally Myc-tagged Mer3 in SK1 yeast) (from UniProt P51979 1-1187) (enzyme)”: the binding result in experiment [3] is listed as “binds”.

As for “His-Mlh1/Strep-Mlh2 complex (from UniProt P38920 1-769; Q07980 1-695)”, in experiment [4], the binding entry was “binds weakly”.
